The values that follow come from article PMC6261607, “Novel high–throughput myofibroblast assays identify agonists with therapeutic potential in pulmonary fibrosis that act via EP2 and EP4 receptors” (PLoS ONE, 2018).

Molecules are shown by their SMILES. Where only a bound is given, the exact number is not on record here.

The test system of test [1] is normal human lung fibroblasts (NHLF). Kind of test: Nuclear count in the HCA, standard assay. Type of test: cell-based. As to conditions: Fibroblast, 48 h, 5 ng/ml TGF–β1, 48 h. How it is done:
(§1) The plate was washed 3 times with starvation medium, e.g. fibroblast basal medium (FBM, Lonza) supplemented with 0.1% faf BSA, 100 units / ml of penicillin and 100 μg / ml of streptomycin and 250 ng / ml amphotericin B, and then starved for 24 h in 30 μl volume. NHLF were differentiated into myofibroblasts by incubation with 5 ng / ml TGF–β1 (from a stock of 20 μg / ml in 4 mM HCl, 1 mg / ml BSA) for 48 h. Compounds were prepared as 5x stocks in starvation medium and added to the starved cells to a final 1x concentration concomitant with TGF–β1 addition. The final DMSO concentration in the assay was 0.6% in all wells. 48 h after TGF–β1 addition, the medium was removed and the cells were fixed in methanol for 10 min at room temperature (RT). After fixation, cells were washed 3 times with 1 x PBS and either stored at 4°C for up to 3 days or further processed. […] Images were acquired on the Opera Phenix confocal high–content screening system (Perkin Elmer) using the 20–x water immersion lens.
(§2) DAPI stained nuclei were used to identify cells. α–SMA and FN regions were then identified and mapped to the corresponding nuclei for background correction, cell segmentation and cell feature computation to identify, classify and weigh over 400 features per cell. […]

The test system is the same in test [2]. Kind of test: Phenotypic high-content assay (HCA) of TGF–β1–induced fibroblast–to–myofibroblast differentiation. It is filed as cell-based. As to the method:
as §1, §2

As a reminder, the IC50 is the midpoint of a concentration-inhibition curve. A low value points to inhibition by little substance. With `O=C(CCCCCCC(=O)Nc1ccccc1)NO` [Vorinostat], the IC50 in test [1] was above 25 µM; in test [2] (48 h, NHLF, 5 ng/ml TGF–β1 for 48 h, compound added with TGF–β1, mean ± SD) it was 5.4 µM. For the same compound, the inhibition at 10 µM in test [2] (read-out: Effect HCA at 10 µM [% inhibition], 10 µM compound, 5 ng/ml TGF–β1, 48 h) was found to be 101%.
